Experimental data reported in PMC4154645.
Read-outs that look alike come from different tables or passages of the source. No constants are given. Whether binding was seen depends on the method and setting. In cells and extracts the contact can be indirect. Some binding calls cover weakened binding; strength is not graded here.

Amino acid sequences for entries named in this document (tags omitted).
UniProt P63280: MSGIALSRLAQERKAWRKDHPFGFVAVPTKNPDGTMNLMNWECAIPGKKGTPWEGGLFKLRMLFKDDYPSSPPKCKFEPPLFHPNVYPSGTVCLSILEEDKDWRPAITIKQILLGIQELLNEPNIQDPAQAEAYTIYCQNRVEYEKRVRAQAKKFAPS
UniProt Q61313: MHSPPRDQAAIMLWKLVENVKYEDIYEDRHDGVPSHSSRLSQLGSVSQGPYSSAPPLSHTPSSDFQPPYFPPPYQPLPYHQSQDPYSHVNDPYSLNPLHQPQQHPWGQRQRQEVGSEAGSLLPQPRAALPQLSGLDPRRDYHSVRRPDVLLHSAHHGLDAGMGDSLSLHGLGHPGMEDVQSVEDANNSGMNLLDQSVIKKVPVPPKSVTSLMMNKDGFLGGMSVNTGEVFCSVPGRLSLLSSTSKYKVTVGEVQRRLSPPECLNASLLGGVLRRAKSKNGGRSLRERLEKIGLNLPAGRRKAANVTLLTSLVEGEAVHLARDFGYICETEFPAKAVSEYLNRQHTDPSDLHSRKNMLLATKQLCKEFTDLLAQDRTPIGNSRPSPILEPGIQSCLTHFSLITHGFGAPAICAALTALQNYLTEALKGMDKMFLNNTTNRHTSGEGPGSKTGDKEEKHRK

T1: Kctd15 (mouse) (UniProt Q8K0E1)
T1 sequence: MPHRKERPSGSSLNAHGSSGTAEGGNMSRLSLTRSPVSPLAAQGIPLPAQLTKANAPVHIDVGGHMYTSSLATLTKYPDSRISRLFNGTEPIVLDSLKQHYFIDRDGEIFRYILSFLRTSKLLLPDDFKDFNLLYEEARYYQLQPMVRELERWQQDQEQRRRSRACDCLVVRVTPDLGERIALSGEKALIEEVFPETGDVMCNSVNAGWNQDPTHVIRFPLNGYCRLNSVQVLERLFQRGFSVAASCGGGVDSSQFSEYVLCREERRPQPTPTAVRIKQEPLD

B1: Kctd15 (protein, UniProt Q8K0E1 1-283)
chain: MPHRKERPSGSSLNAHGSSGTAEGGNMSRLSLTRSPVSPLAAQGIPLPAQLTKANAPVHIDVGGHMYTSSLATLTKYPDSRISRLFNGTEPIVLDSLKQHYFIDRDGEIFRYILSFLRTSKLLLPDDFKDFNLLYEEARYYQLQPMVRELERWQQDQEQRRRSRACDCLVVRVTPDLGERIALSGEKALIEEVFPETGDVMCNSVNAGWNQDPTHVIRFPLNGYCRLNSVQVLERLFQRGFSVAASCGGGVDSSQFSEYVLCREERRPQPTPTAVRIKQEPLD

What was measured:
Experiment in all cases: proximity ligation; in situ PLA (Duolink II fluorescence kit, orange detection reagents) on mHypoE-N25/2 cells fixed in 4% paraformaldehyde; endogenous proteins detected with pairs of primary antibodies; negative controls without primary antibodies
[1] = molecular target: Ube2i (mouse) (UniProt P63280)
[2] = molecular target: T1, Kctd15 (mouse)
[3] = molecular target: Ube2i (mouse) (UniProt P63280); remark: listed apart in the source

| Molecule | binding [1] | binding [2] | binding [3] |
| --- | --- | --- | --- |
| AP-2β (from UniProt Q61313 1-459) | binds | binds |  |
| B1 |  |  | binds |
